Results: PubChem BioAssay AID493014 (National Center for Advancing Translational Sciences (NCATS), 2011)
Some of the results follow. Further columns of the screen follow, without active or inactive calls. Most of these compounds were active or inconclusive in the main read-out, so they are no random draw. The note in brackets gives the kind of curve behind each potency; many fits are weak.

Experiment: qHTS Assay to Find Inhibitors of Chronic Active B-Cell Receptor Signaling
Details: ABC-DLBCL IkBa-CBG/CBR reporter, luminescence ratio (green luciferase fused to IkBa over red control in TMD8 lymphoma cells), 4 h
In short: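 Cell line TMD8 (human ABC DLBCL), stably expressing tet-inducible CBG68-IkBa fusion and CBR; IMDM/0.5% FBS; cpd up to 46 uM; dox induction, 4 h, 37C/5% CO2; dual luminescence; green/red ratio; MG132 control.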

[1] = measured here: CBR red luminescence, cell number
[2] = measured here: IkBa-CBG green luminescence

| Structure (SMILES) | AC50 [1] | AC50 [2] |
| --- | --- | --- |
| COc1ccc(C(=O)OC(C)CN2CCOCC2)cc1OC (stereo unspecified) | 35.5 µM [rising, single point] | – |
| COc1cccc2cc(-c3nnc(-c4ccccc4)o3)c(=O)oc12 | 2 µM [falling, partial curve, poor fit] | – |
| Cc1oc(-c2ccc(Cl)cc2)nc1CN1CCC(C(=O)NCCCN2CCOCC2)CC1 | 35.5 µM [falling, single point] | – |
| O=C(O)CCC(=O)Nc1ccccc1C(=O)NCc1ccco1 | 13 µM [rising, single point] | – |
| COc1ccc(CNCCc2ccc(Cl)cc2)cc1OCc1ccccc1 | 1 µM [falling, full curve, poor fit] | – |
| COc1ccc(S(=O)(=O)Nc2cc(Cl)ccc2OC)cc1 | 15.8 µM [rising, single point] | 22.4 µM [falling, single point] |
| C=CCn1c(SCc2ccc(Br)cc2F)nc2cc(C(=O)O)ccc2c1=O | 5.62 µM [falling, single point] | – |
| Cc1cc(/C=N/NC(=O)c2nn(C)cc2Cl)c(C)n1-c1cccc(Br)c1 | 20.6 µM [falling, single point] | – |
| CC(=O)c1ccccc1OC(=O)c1c(F)cccc1F | 28.2 µM [rising, single point] | – |
| O=C(CNc1ccccc1F)Nc1cccc(S(=O)(=O)N2CCCCC2)c1 | 18.4 µM [falling, single point] | – |
| CC1CCN(Cc2cc(=O)oc3ccc4ccccc4c23)CC1 | 5.62 µM [falling, single point] | – |
| COc1ccc(-c2csc(NC(C)=O)n2)cc1OC | 29.1 µM [falling, single point] | – |
| CCCCn1c2c(c(=O)n(C)c1=O)C(c1ccc(OC)cc1)N1CCCCCC1=N2 (stereo unspecified) | 10 µM [falling, partial curve, poor fit] | – |
| COC(=O)c1cc(=O)nc2sccn12 | 6.51 µM [rising, single point] | – |
| Cc1cc(Cl)ccc1OCC(O)CNCCc1ccc(S(N)(=O)=O)cc1 (stereo unspecified) | 7.94 µM [falling, partial curve, poor fit] | – |
| CC[C@H](C)[C@H](NS(=O)(=O)c1ccc(C)cc1)C(=O)N1CCC(C(=O)N[C@@H](C)C(=O)O)CC1 | 17.8 µM [rising, partial curve, poor fit] | – |
| C[C@H](CO)N1C[C@H](C)[C@@H](CN(C)Cc2ccc(Cl)c(Cl)c2)Oc2c(NC(=O)CCC(F)(F)F)cccc2C1=O | 20.6 µM [falling, single point] | – |
| CCCCOc1ccc(Cl)cc1CSc1nnc(C)n1N | 6.51 µM [rising, single point] | – |
| O=c1c2ccccc2oc2ccc(NCCCN3CCOCC3)cc12 | 3.16 µM [rising, single point] | – |
| Cc1cc(-n2c(SCc3ccccc3F)nc3[nH]ncc3c2=O)ccc1Cl | 22.4 µM [falling, single point] | – |
| CCc1ccc2c(c1)C1(NN=C(c3ccccc3)S1)C(=O)N2 (stereo unspecified) | 29.1 µM [falling, single point] | – |
| CCOc1cc(N2CCOCC2)c(OCC)cc1NC(=O)c1c(C)noc1C | 0.92 µM [rising, full curve, poor fit] | – |

| Structure (SMILES) | AC50 [1] | AC50 [2] |
| --- | --- | --- |
| CCCN1CC(=O)N2Cc3[nH]c4ccccc4c3C[C@H]2C1=O | 15.8 µM [rising, single point] | – |
| Cc1ccc(C(=O)NC2CCCCCCC2)cc1S(=O)(=O)N1CCOCC1 | 0.092 µM [rising, full curve, poor fit] | – |
| COc1ccccc1CCNS(=O)(=O)CCNC(=O)c1ccc2c(c1)OCO2 | 6.51 µM [rising, single point] | – |
| O=c1c(C/C=C/c2ccccc2)c(O)ccn1CCc1c[nH]c2ccccc12 | 35.5 µM [falling, single point] | – |
| CN(C)S(=O)(=O)c1cccc(NC(=O)c2cc3c(cc2Cl)N2CCCCCC2=NS3(=O)=O)c1 | 3.98 µM [rising, full curve, poor fit] | – |
| CCCc1nc2sc(C(=O)OCC)c(N)c2c2c1COC(C)(C)C2 | 2.91 µM [rising, partial curve, poor fit] | – |
| C=C(C)C1Cc2c(C)nn(-c3nc(C)cc(C)n3)c2C1 (stereo unspecified) | 10 µM [rising, single point] | – |
| COc1ccc(/C=N/NC(=O)c2ccc(COc3cccc4cccnc34)cc2)cc1OC | 35.5 µM [falling, single point] | – |
| C/C(=N\NC(=O)c1cc(C(C)C)[nH]n1)c1ccco1 | 13 µM [falling, partial curve] | – |
| Cc1cccc(C(=O)NC2CCN(CC(=O)NCc3cccs3)CC2)c1 | 14.1 µM [falling, partial curve, poor fit] | – |
| Cc1n[nH]c(C)c1CCCOc1ccccc1 | 16.4 µM [rising, single point] | – |
| Cc1ccc(-c2nc3ccccc3n3c(C)nnc23)cc1 | 5.62 µM [falling, single point] | – |
| Cc1cc2cc(OCC(=O)O)ccc2n1C | 2.31 µM [falling, partial curve, poor fit] | – |
| CC(Sc1cccc[n+]1[O-])C(=O)NC1CCCCC1C (stereo unspecified) | 7.31 µM [rising, partial curve] | – |
| COCCn1c(=O)[nH]c(=O)c2c(C(F)(F)F)cc(-c3cccs3)nc21 | 20.6 µM [rising, single point] | – |
| COc1ccc(CNC(=O)CN(c2ccc(C(C)=O)cc2)S(=O)(=O)c2ccc(C)cc2)cc1OC | 25.9 µM [rising, single point] | – |
| O=C(Nc1ccccc1C(=O)Nc1ccc2c(c1)OCO2)c1ccco1 | 35.5 µM [falling, single point] | – |
| COc1ccccc1C(=O)Nc1ccc2c(c1)nc1n2CCSC1 | 12.6 µM [falling, single point] | – |
| CCC(Cc1ccccc1)NS(=O)(=O)c1ccc2c(c1)NC(=O)C(C)S2 (stereo unspecified) | 3.98 µM [falling, full curve] | – |
| COc1cc2sc(-c3ccc(S(C)(=O)=O)cc3)c(C(=O)NCCCCO)c2cc1OC | 18.4 µM [rising, single point] | – |
| CC1=CC(=NOC(=O)/C=C/c2ccccc2)C=C(C)C1=O | 35.5 µM [falling, single point] | – |
| O=C(c1ccncc1)c1ccc(NS(=O)(=O)c2ccc(Br)s2)cc1 | 35.5 µM [falling, single point] | – |

| Structure (SMILES) | AC50 [1] | AC50 [2] |
| --- | --- | --- |
| CCCn1c(O)c(C=Nc2ccccc2)sc1=S | 4.47 µM [falling, single point] | – |
| Cc1ccc2nc(COc3ccc(Cl)cc3)cc(=O)n2c1 | 0.398 µM [rising, partial curve, poor fit] | – |
| CCOC(=O)C1CCN(c2ncnc3cc(OC)c(OC)cc23)CC1 | 31.6 µM [rising, single point] | – |
| COc1ccc(C2=NN(C(=O)c3cccc([N+](=O)[O-])c3)C(c3cccc([N+](=O)[O-])c3)C2)cc1 (stereo unspecified) | 25.9 µM [falling, single point] | – |
| COC(=O)CC(NC(=O)c1ccc(C)cc1)c1ccc2c(c1)OCO2 (stereo unspecified) | 1.64 µM [falling, partial curve, poor fit] | – |
| O=C(c1ccc(F)cc1)c1cnc(Nc2ccccc2)s1 | 1.58 µM [falling, full curve] | – |
| CN(C)C(=O)N1CCCC(C(=O)NCc2ccccc2Cl)C1 (stereo unspecified) | 23.1 µM [rising, single point] | – |
| COc1ccc(C2CC(c3ccccc3)=NN2c2ccc(N)cc2)cc1 (stereo unspecified) | 7.31 µM [rising, partial curve, poor fit] | – |
| COc1ccc(N(CC(=O)Nc2cccc3ccccc23)S(C)(=O)=O)c(OC)c1 | 4.47 µM [rising, partial curve, poor fit] | 12.6 µM [falling, single point] |
| COc1ccc(CN2CCCC(C(=O)c3cccc(C(F)(F)F)c3)C2)cc1O (stereo unspecified) | 0.562 µM [falling, full curve, poor fit] | – |
| Cc1ccc(COn2c(-c3ccc(Cl)cc3Cl)nc3ncccc32)cc1 | 13 µM [falling, partial curve, poor fit] | – |
| Cc1ccc(OCCOc2cccc(Br)c2)c([N+](=O)[O-])n1 | 6.51 µM [rising, partial curve] | – |
| CC1(C)Oc2ccc(C(=O)NC3CCCC3)cc2N(CC(=O)NC2CCCC2)C1=O | 23.1 µM [rising, single point] | – |
| CCCn1c(SCC(=O)Nc2cccc(NC(C)=O)c2)nnc1C(C)C | 1 µM [falling, full curve, poor fit] | – |
| COc1ccccc1CN(C)C(=O)c1cc(-c2cccs2)nc2ccccc12 | 22.4 µM [falling, single point] | – |
| CSCC[C@H](NC(=O)C1CCN(C(=O)[C@H](Cc2ccccc2)NS(=O)(=O)c2ccc(C)cc2)CC1)C(=O)O | 7.08 µM [rising, full curve, poor fit] | – |
| C=CCN=C(NC#N)SCC(=O)c1cccc(OC)c1 | 14.1 µM [falling, single point] | – |
| Cc1c(NC(=O)COC(=O)/C=C/c2cccc(Cl)c2)c(=O)n(-c2ccccc2)n1C | 3.26 µM [rising, full curve, poor fit] | – |
| CN(C)CCCNc1c2c(nc3ccccc13)CCC2 | 5.62 µM [falling, partial curve, poor fit] | – |
| O=C(O)c1cccc(-n2cccc2/C=C2/NC(=O)N(c3ccc(Cl)cc3)C2=O)c1 | 35.5 µM [falling, single point] | – |
